Reference: PubChem BioAssay AID1439 (NMMLSC, 2008)
Several values for one entry are separate records, joined by “and”; a condition that tells them apart may be missing. Equal values may be shown once. Hit rate of the full screen: of about 220,000 compounds, about 770 (0.35%) were called active. This list was built around the results that the source calls inconclusive (neither active nor inactive); the mix of calls is not that of the screen. Cut-off read from the data, not from the text of the source: active = binding response below about 49% or above about 150%; inconclusive = no clear call, values can overlap the other calls; inactive = in between.

Chains of the proteins cited; added tags and fusions are not shown.
UniProt P09471, whole entry, looked up: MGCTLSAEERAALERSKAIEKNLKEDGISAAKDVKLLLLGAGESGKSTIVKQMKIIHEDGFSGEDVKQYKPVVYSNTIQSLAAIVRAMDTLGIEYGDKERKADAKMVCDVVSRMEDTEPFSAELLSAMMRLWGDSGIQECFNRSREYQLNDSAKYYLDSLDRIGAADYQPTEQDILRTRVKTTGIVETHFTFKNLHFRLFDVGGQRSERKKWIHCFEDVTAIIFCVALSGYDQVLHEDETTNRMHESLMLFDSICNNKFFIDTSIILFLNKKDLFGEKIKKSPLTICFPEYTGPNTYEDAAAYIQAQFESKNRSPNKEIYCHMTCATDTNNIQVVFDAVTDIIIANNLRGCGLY

Target: Guanine nucleotide-binding protein G(o) subunit alpha (Homo sapiens) (UniProt P09471)
Assay: RGS7-Galphao binding modulators, primary screen, biochemical, multiplexed bead flow cytometry (AID 1439);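 note: fluorescent Galphao held in activated GDP-AlF4 state binding bead-coupled RGS7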
Settings: at 10 µM, actives lie on both sides

Compound | binding response (% of control)
O=C(Cn1nc(-c2ccccc2)c2ccccc2c1=O)NN1CCOCC1 | inconclusive: 84.6%
CC(=O)Nc1ccc2c(c1)nc1n2CCN(C(C)c2ccccc2)C1 (centres undefined) | inconclusive: 87.4%
Cc1ccc(C(=O)C2=C(O)C(=O)N(c3ncccn3)C2c2ccc(F)cc2)o1 (centres undefined) | inconclusive: 195%
CCCn1c(NC(=O)C23CC4CC(CC(O)(C4)C2)C3)nc2ccccc21 | inactive: 104%
COCCCN1CN(Cc2ccccc2)CNC1=S | inactive: 83%
COc1ccc(NC(=O)CNC(=O)c2cccs2)cc1Cl | inconclusive: 68.3%
Oc1ccc(N=Nc2ccc3c(c2)OCCO3)c2ncccc12 | inconclusive: 161%
Cc1ccc(C(=O)OCC(=O)Nc2ccccc2Cl)c(O)c1 | inconclusive: 84.5%
CC12CN3CCN(CC(C3)/C1=N\NC(=O)Nc1cccc(Cl)c1)C2 | inactive: 99.3%
O=C(N/N=C/c1cccc2nccnc12)c1ccncc1 | inconclusive: 31%
COCCCn1c(=S)[nH]c(C)c(C)c1=O | inconclusive: 151%
COc1ccc(NC(=O)c2cc3c(=O)n(C)c4ccccc4c3s2)cc1OC | inactive: 93%
COc1ccc2no[n+]([O-])c2c1 | inconclusive: 121%
c1ccc(C2=NN(c3ccccc3)CC2)cc1 | inconclusive: 29.7%
Cn1nc([N+](=O)[O-])nc1Sc1nnnn1-c1ccc(C(=O)O)cc1 | inactive: 97.2%
Cn1nc(C(F)(F)F)c(-c2ccc(Br)cc2)c1NC(=O)c1cccnc1 | inconclusive: 73.2%
CCn1c(SCC(=O)OC)nnc1-c1ccc(C)cc1 | inconclusive: 82.2%
Cc1onc(-c2c(Cl)cccc2Cl)c1C(=O)O/N=C(\C#N)c1ccccc1 | inconclusive: 92.1%
COc1cc(OC)c2c(c1C(CCN1CCOCC1)c1ccc(N(C)C)cc1)OC(=O)CC2c1ccc(N(C)C)cc1 (centres undefined) | inconclusive: 112%
Cc1cccc(NC(=S)N/N=C/c2cccc(O)c2)c1C | inconclusive: 96.8%

Compound | binding response (% of control)
Cc1ccc(OCC(=O)NC(=S)Nc2ccc(Br)cn2)cc1C | inactive: 98.5%
COc1ccc2sc(N(CCN(C)C)C(=O)c3cc(Cl)sc3Cl)nc2c1 | inconclusive: 102%
O=C(NCCN1CCOCC1)c1cc2sccc2n1Cc1ccc(Cl)cc1 | inactive: 109%
CCCCCCOc1ccc(N2C(=O)CC(NCc3ccc(S(N)(=O)=O)cc3)C2=O)cc1 (centres undefined) | inconclusive: 81.2%
Cc1ccc(CNC(=O)COC(=O)c2c(C)noc2C)cc1 | inactive: 142%
Cc1cnc(C(=O)OCC(=O)N(Cc2ccccc2)C(C)C)cn1 | inconclusive: 97.4%
CC(C)N(NC(=O)c1cccc2ccccc12)C(C)C | inactive: 147%
O=C(c1ccc(Cn2c(=S)[nH]c3ccccc3c2=O)cc1)N1CCN(c2ccccn2)CC1 | inactive: 117%
C=CCN(CC=C)C(=O)c1ccc(OC2CCN(S(=O)(=O)N(C)C)CC2)cc1 | inactive: 97.3%
COc1ccc(CC(=O)NNc2ncnc3c2cnn3C)cc1 | inactive: 106%
CCCCCCCCCCCC(=O)N1CC(=O)NC(=O)C1 | inconclusive: 77.4%
CCCCC[n+]1ccn(C2=C([O-])c3ccccc3C(=O)/C2=N\S(=O)(=O)c2ccc(Cl)cc2)c1 | inconclusive: 100%
CC1CCCN(c2ncnc3c2cnn3-c2ccccc2)C1 (centres undefined) | inconclusive: 128%
CC1Oc2ccccc2C=C1/C=N/NC(=O)[C@@H](C)NC(=O)OC(C)(C)C (some centres undefined) | inconclusive: 168%
CC(C)(C)c1ccc(C(=O)c2c[nH]c(C(=O)NCCc3ccccn3)c2)cc1 | inconclusive: 111%
CC(CCc1ccco1)NC(=O)Nc1cccc(F)c1 (centres undefined) | inactive: 107%
CCOC(=O)C1(C)NC(c2cccs2)C2C(=O)N(c3ccc(OC)cc3)C(=O)C21 (centres undefined) | inactive: 102%
COc1ccc(S(=O)(=O)N(CC(=O)N/N=C/c2ccccc2C(=O)O)c2ccccc2OC)cc1 | inconclusive: 120%
COc1ccc(-c2cc(C3CCN(C(=O)OC(C)(C)C)CC3)[nH]n2)cc1 | inactive: 96.3%
Cc1ccc(NC(=O)COc2cccnc2[N+](=O)[O-])cc1S(=O)(=O)N1CCOCC1 | inactive: 101%

Compound | binding response (% of control)
CC1CCCC(C)N1C(=O)Cn1cnc2cc([N+](=O)[O-])ccc2c1=O (centres undefined) | inconclusive: 113%
Cc1c2c(nc3ccccc13)CC(C)(C)CC2=O | inconclusive: 94.9%
COc1ccc(OC(=O)COc2ccc(C)cc2)cc1 | inconclusive: 66.9%
CCC(C)NC(=O)CN1C(=O)NC2NC(=O)NC21 (centres undefined) | inconclusive: 99.9%
COCCn1c(SCc2cc(=O)n3cc(C)ccc3n2)nc2ccccc2c1=O | inconclusive: 99.1%
O=c1[nH]c2ccc([N+](=O)[O-])cc2nc1/C=C(\O)c1ccccc1 | inconclusive: 64.1%
O=C(Nc1ccccc1C(=O)NCc1cccnc1)c1cccc([N+](=O)[O-])c1 | inactive: 100%
Cc1nnsc1C(=O)NNC(=O)c1cccc2ccccc12 | inconclusive: 105%
S=c1[nH]nc(-c2ccc3ccccc3n2)n1-c1ccc2c(c1)OCCO2 | inconclusive: 116%
COc1ccc2c([N+](=O)[O-])c(Cl)[nH]c2c1 | inconclusive: 104%
O=C(N/N=C/c1cc2cc3c(cc2nc1Cl)OCO3)c1ccncc1 | inconclusive: 122%
CN1CCCNc2nc3ccccc3nc21 | inconclusive: 110%
O=C(NCCc1ccccc1)C1CC(c2ccccc2O)=NO1 (centres undefined) | inactive: 103%
O=C(CSC1=Nc2ccccc2C2=NC(CC(=O)N3CCN(c4ccccc4)CC3)C(=O)N12)NCC1CCCO1 (centres undefined) | inconclusive: 105%
Cc1cc(=O)[nH]c(SCC(=O)Nc2ccc(F)c([N+](=O)[O-])c2)n1 | inconclusive: 117%
O=C(c1ccco1)N(CCC(c1ccccc1)c1ccco1)Cc1ccco1 (centres undefined) | active: 14%
c1ccc(CSc2nnc3c4ccccc4c4ccccc4c3n2)cc1 | inconclusive: 96.7%
COc1ccc(C(=O)NC(=S)Nc2nc(C)cc(C)n2)cc1Br | inconclusive: 102%
OC1(Cc2ccccc2)CCNCC1 | inconclusive: 107% and inconclusive: 112%

In the list so far, these have a halogen:
Compound | binding response (% of control)
Cc1ccc(C(=O)C2=C(O)C(=O)N(c3ncccn3)C2c2ccc(F)cc2)o1 (centres undefined) | inconclusive: 195%
COc1ccc(NC(=O)CNC(=O)c2cccs2)cc1Cl | inconclusive: 68.3%
Cc1ccc(C(=O)OCC(=O)Nc2ccccc2Cl)c(O)c1 | inconclusive: 84.5%
CC12CN3CCN(CC(C3)/C1=N\NC(=O)Nc1cccc(Cl)c1)C2 | inactive: 99.3%
Cn1nc(C(F)(F)F)c(-c2ccc(Br)cc2)c1NC(=O)c1cccnc1 | inconclusive: 73.2%
Cc1onc(-c2c(Cl)cccc2Cl)c1C(=O)O/N=C(\C#N)c1ccccc1 | inconclusive: 92.1%
Cc1ccc(OCC(=O)NC(=S)Nc2ccc(Br)cn2)cc1C | inactive: 98.5%
COc1ccc2sc(N(CCN(C)C)C(=O)c3cc(Cl)sc3Cl)nc2c1 | inconclusive: 102%
O=C(NCCN1CCOCC1)c1cc2sccc2n1Cc1ccc(Cl)cc1 | inactive: 109%
CCCCC[n+]1ccn(C2=C([O-])c3ccccc3C(=O)/C2=N\S(=O)(=O)c2ccc(Cl)cc2)c1 | inconclusive: 100%
CC(CCc1ccco1)NC(=O)Nc1cccc(F)c1 (centres undefined) | inactive: 107%
COc1ccc2c([N+](=O)[O-])c(Cl)[nH]c2c1 | inconclusive: 104%
O=C(N/N=C/c1cc2cc3c(cc2nc1Cl)OCO3)c1ccncc1 | inconclusive: 122%
Cc1cc(=O)[nH]c(SCC(=O)Nc2ccc(F)c([N+](=O)[O-])c2)n1 | inconclusive: 117%
COc1ccc(C(=O)NC(=S)Nc2nc(C)cc(C)n2)cc1Br | inconclusive: 102%

A second format for some results above.

| Compound | binding response (% of control) |
| --- | --- |
| O=c1[nH]c2ccc([N+](=O)[O-])cc2nc1/C=C(\O)c1ccccc1 | inconclusive: 64.1% |
| O=C(Nc1ccccc1C(=O)NCc1cccnc1)c1cccc([N+](=O)[O-])c1 | inactive: 100% |
